{"source": "PubChem BioAssay AID540276", "about": "(National Center for Advancing Translational Sciences (NCATS), 2011)", "note": "Several values for one entry are separate records, joined by “and”; a condition that tells them apart may be missing. Equal entries are not always repeated. Screen size: about 300,000 compounds; about 5,400 (1.8%) were called active. Inconclusive means that the source gave no clear call. Such entries were picked first, then a sample of the others. Calls come from the whole dose curve; tested in HEK293 cells. Where the call is inconclusive, the potency comes from a doubtful curve fit. Potency is the fitted concentration of half-maximal effect."}
{"assay": "qHTS for inhibitors of binding or entry into cells for Marburg Virus", "conditions": "Marburg virus pseudotyped entry inhibition, cell reporter; series mostly up to 37.8 µM"}
{"compound": "Cc1cccc(NC(=O)c2sccc2-n2cccc2)c1C", "Potency": "inconclusive: 39.8 µM [inhibitor, partial curve, poor fit]"}
{"compound": "COc1ccc(NC(=O)C2CCN(S(=O)(=O)c3c(C)nn(C)c3C)CC2)cc1", "Potency": "inactive"}
{"compound": "CCOC(=O)c1nc(C)sc1-c1ccnn1S(=O)(=O)c1ccc(C)cc1", "Potency": "inconclusive: 35.5 µM [inhibitor, single point]"}
{"compound": "CCCOc1ccc(C(=O)c2nc3c(n2O)CCCC3)cc1", "Potency": "inconclusive: 10.3 µM [activator, partial curve, poor fit]"}
{"compound": "O=C(c1cc2ccccc2oc1=O)N1CCN(c2ncccn2)CC1", "Potency": "inconclusive: 14.1 µM [activator, single point]"}
{"compound": "CC(=O)c1ccc(NC(=O)C2CC(=O)N(C(C)C)C2)cc1", "note": "(stereo not drawn)", "Potency": "inactive"}
{"compound": "O=C(O)CSC(=S)N1CCCCC1", "Potency": "inconclusive: 6.31 µM [inhibitor, single point]"}
{"compound": "CCCc1cc(-c2nc(-c3ccc(Cl)cc3)cs2)ccn1", "Potency": "inactive"}
{"compound": "CC(NC(=O)c1ccco1)c1nc(-c2ccc(C(C)(C)C)cc2)no1", "note": "(stereo not drawn)", "Potency": "inconclusive: 5.62 µM [inhibitor, partial curve, poor fit]"}
{"compound": "O=C1C(NS(=O)(=O)c2cccs2)=C(N2CCN(c3ccccc3)CC2)C(=O)c2ccccc21", "Potency": "inactive"}
{"compound": "COC(=O)c1c(C)[nH]c(C(=O)OCc2csc(CC(=O)Nc3ccccc3C)n2)c1C", "Potency": "active: 10 µM"}
{"compound": "Cc1ccc(C)n1-c1ccc(C(=O)/C=C/N(C)C)cc1", "Potency": "inactive"}
{"compound": "CC(C)(C)c1ccc(-c2n[nH]c(=S)n2-c2ccccc2)cc1", "Potency": "inactive"}
{"compound": "C=C(C)c1cccc(C(C)(C)NC(=O)N(Cc2ccccc2)Cc2ccco2)c1", "Potency": "inconclusive: 10 µM [inhibitor, partial curve, poor fit]"}
{"compound": "O=C(CCCSc1nc2ccccc2[nH]1)Nc1nnc(C2CC2)s1", "Potency": "inactive"}
{"compound": "CCOc1ccc(-n2c(CCC(=O)O)ccc2-c2ccc(Br)cc2)cc1", "Potency": "inactive"}
{"compound": "Cc1cc(NC(=O)CCC(=O)N(c2ccccc2C)C(C(=O)NC2CCCC2)c2ccccc2)no1", "note": "(stereo not drawn)", "Potency": "inconclusive: 4.47 µM [inhibitor, full curve]"}
{"compound": "O=C(Nc1ccccc1C(F)(F)F)c1ccc(F)c(S(=O)(=O)N2CCOCC2)c1", "Potency": "inconclusive: 1.83 µM [inhibitor, partial curve, poor fit]"}
{"compound": "Cc1nc(-c2ccc(NC(=O)c3ccccc3C)cc2)cs1", "Potency": "inconclusive: 15.8 µM [inhibitor, single point]"}
{"compound": "O=C(c1cccc(C(F)(F)F)c1)C1CCCN(Cc2ccccc2O)C1", "note": "(stereo not drawn)", "Potency": "inactive"}
{"compound": "COc1ccccc1Oc1ccc(S(=O)(=O)N2CCOCC2)cc1S(=O)(=O)N1CCOCC1", "Potency": "inactive"}
{"compound": "c1cnc(SCCOc2ccc3c(c2)CCC3)nc1", "Potency": "inconclusive: 0.231 µM [activator, full curve]"}
{"compound": "O=C(COc1ccc2c(c1)OCO2)Nc1ccc(Cl)cn1", "Potency": "inconclusive: 11.2 µM [inhibitor, partial curve, poor fit]"}
{"compound": "Cc1ccccc1-n1nc(C)c2cc(C(=O)N3CCN(S(=O)(=O)c4ccc(Cl)cc4)CC3)sc21", "Potency": "inconclusive: 25.1 µM [inhibitor, single point]"}
{"compound": "COc1ccc(OC)c(NC(=O)c2cc(-c3cc(Cl)ccc3O)n[nH]2)c1", "Potency": "inconclusive: 6.51 µM [inhibitor, partial curve, poor fit]"}
{"compound": "CCOC(=O)/C=c1/s/c(=C\\c2c(OC)ccc3ccccc23)c(=O)n1CC(=O)NCC1CCCO1", "note": "(stereo not drawn)", "Potency": "inconclusive: 3.98 µM [inhibitor, full curve]"}
{"compound": "C=C(C)CSc1nnc(-c2ccccc2)n1N", "Potency": "inconclusive: 5.62 µM [activator, partial curve, poor fit]"}
{"compound": "CC1=Nc2cc(C(=O)NCCc3ccc(Cl)cc3)ccc2Sc2ccc(C)cc21", "Potency": "active: 7.94 µM"}
{"compound": "Cc1ccc(C)c(NC(=O)c2ccc3c(c2)N(Cc2ccc(F)cc2)C(=O)CS3=O)c1", "note": "(stereo not drawn)", "Potency": "active: 2.59 µM"}
{"compound": "Cc1ccc(-c2ccc(=O)n(Cc3cc(C)ccc3C)n2)cc1", "Potency": "inactive and inconclusive: 10 µM [inhibitor, partial curve, poor fit]"}
{"compound": "C=CCN1C(=O)C(Cc2ccc(OC)cc2)S/C1=N/N=C/c1ccco1", "note": "(stereo not drawn)", "Potency": "inactive"}
{"compound": "N#Cc1ccc(-c2ccc(OC[C@H](O)Cn3nnc4ccccc43)cc2)cc1", "Potency": "inconclusive: 17.8 µM [inhibitor, single point]"}
{"compound": "C(=N\\C(/N=C/c1ccco1)c1ccco1)/c1ccco1", "Potency": "inactive"}
{"compound": "CC1(C)CC(=O)C(=CN2CCOCC2)C(=O)C1", "Potency": "inactive"}
{"compound": "Cn1nc(-c2ccccc2)c(-c2nc(-c3cccc(Cl)c3)no2)c1Cl", "Potency": "inactive"}
{"compound": "CC(=O)Nc1ccc(S(=O)(=O)NCCC(=O)N2CCC(Cc3ccccc3)CC2)cc1", "Potency": "inconclusive: 0.1 µM [activator, full curve, poor fit]"}
{"compound": "Cn1nc([N+](=O)[O-])nc1Sc1ccc(Cl)cc1", "Potency": "inactive"}
{"compound": "Cc1cc(NC(=O)c2ccc(NC(=O)C3CC3)cc2)no1", "Potency": "inconclusive: 5.62 µM [activator, full curve]"}
{"compound": "CC(/C=C1\\SC(=S)N(CCC(=O)Nc2ccc(O)cc2)C1=O)=C\\c1ccccc1", "Potency": "inconclusive: 11.2 µM [inhibitor, partial curve, poor fit]"}
{"compound": "Cn1/c(=N/N=C/c2ccc(Cl)c([N+](=O)[O-])c2)sc2ccccc21", "Potency": "inactive"}
{"compound": "O=C(CSc1nnc(-c2ccc3c(c2)OCCO3)o1)N1CCCC1", "Potency": "inconclusive: 35.5 µM [inhibitor, single point]"}
{"compound": "CCC(C(=O)N1CCN(c2ccccc2)CC1)n1nc(C)n2c(cc3sccc32)c1=O", "note": "(stereo not drawn)", "Potency": "inconclusive: 3.16 µM [inhibitor, partial curve, poor fit]"}
{"compound": "COc1ccc(C(=O)N2CCNC(=O)C2)cc1S(=O)(=O)Nc1ccc(Br)cc1", "Potency": "inactive"}
{"compound": "CCCC1=C(C(=O)OCC)C(c2ccco2)C(C#N)=C(N)O1", "note": "(stereo not drawn)", "Potency": "inactive"}
{"compound": "CC(=O)Nc1ccc(N(C)C)cc1[N+](=O)[O-]", "Potency": "inactive"}
{"compound": "CCCCCOc1ccc(CSC2=NCCN2)cc1[N+](=O)[O-]", "Potency": "inactive"}
{"compound": "CC(=O)NC1=NN(C(C)=O)C(C)(c2ccco2)S1", "note": "(stereo not drawn)", "Potency": "active: 3.16 µM"}
{"compound": "Cc1ccc(NC(=S)NC2CCSc3ccccc32)cc1", "note": "(stereo not drawn)", "Potency": "inactive"}
{"compound": "CCC1(c2ccccc2)NC(=O)N(CC(=O)NC2CCCC2)C1=O", "note": "(stereo not drawn)", "Potency": "inactive"}
{"compound": "CC(SCC(=O)Nc1ccccc1)c1nc2ccccc2c(=O)[nH]1", "note": "(stereo not drawn)", "Potency": "inconclusive: 1.26 µM [inhibitor, single point]"}
{"compound": "COc1ccc(NC(=O)CS(=O)(=O)c2ccccc2Cl)cc1", "Potency": "inactive"}
{"compound": "CCN(CC)CCCn1c(C)cc2c(c1=O)[C@H](c1ccc(OC)c(OC)c1OC)C(C#N)=C(N)O2", "Potency": "inactive"}
{"compound": "CC12CC3(C)CC(C)(C1)CC(NC(=O)N1CCCC1)(C2)C3", "Potency": "inconclusive: 35.5 µM [inhibitor, single point]"}
{"compound": "COc1ccc(OCCCN2CCCCCC2)cc1", "Potency": "inconclusive: 11.2 µM [activator, partial curve, poor fit]"}
{"compound": "COC(=O)c1c(-c2cccc(C)c2)csc1NC(=O)C1CCCO1", "note": "(stereo not drawn)", "Potency": "inconclusive: 3.16 µM [activator, single point]"}
{"compound": "CS(=O)(=O)N(CC(=O)Nc1ccccc1C(=O)N1CCOCC1)c1cccc(F)c1", "Potency": "inactive"}
{"compound": "O=C(O)C1CCCCC1C(=O)Nc1ccc(S(=O)(=O)N2CCOCC2)cc1", "note": "(stereo not drawn)", "Potency": "inactive"}
{"compound": "CCOC(=O)c1cc2oc(C(c3nnnn3C3CCCCC3)N3CCOCC3)cc2[nH]1", "note": "(stereo not drawn)", "Potency": "inconclusive: 35.5 µM [inhibitor, single point]"}
{"compound": "OC(COc1ccc2ccccc2c1)CN1CCOCC1", "note": "(stereo not drawn)", "Potency": "inconclusive: 11.2 µM [activator, partial curve, poor fit]"}
{"compound": "CC(=O)N1CCn2c3c(c(=O)c4cc(C)ccc42)CCC31", "note": "(stereo not drawn)", "Potency": "inactive"}
{"compound": "COC(=O)c1ccc(NC(=O)CN2C(=O)C3C4C=CC(C4)C3C2=O)cc1", "note": "(stereo not drawn)", "Potency": "inconclusive: 18.3 µM [activator, single point]"}
{"compound": "COCCNC(=O)COC(=O)c1cccnc1SC", "Potency": "inconclusive: 35.5 µM [activator, partial curve, poor fit]"}
{"compound": "COc1ccc(NC(=S)c2ccc(N(C)C)cc2)cc1", "Potency": "inconclusive: 1.41 µM [activator, partial curve]"}
{"compound": "CC(C)N(C(=O)N1CCC(c2nc(-c3ccncc3)no2)CC1)C(C)C", "Potency": "inactive"}
{"compound": "COc1cc(OC)c(Nc2cc(C)nc3ncnn23)cc1Cl", "Potency": "inactive"}
{"compound": "O=C(Nc1cccc(-c2csc(-c3ccccc3)n2)c1)c1cccs1", "Potency": "inconclusive: 32.6 µM [inhibitor, single point]"}
{"compound": "Cc1cc(C)nc(N/C(=N\\S(=O)(=O)Cc2ccccc2)Nc2ccccc2Br)n1", "Potency": "active: 2.82 µM"}
{"compound": "Cc1ccc(NC(=O)COC(=O)C2=COCCO2)c([N+](=O)[O-])c1", "Potency": "inactive"}
{"compound": "COCCNC(=O)c1c[nH]c2ccc(S(=O)(=O)N3CCc4ccccc43)cc2c1=O", "Potency": "inconclusive: 12.6 µM [inhibitor, partial curve, poor fit]"}
{"compound": "O=C1c2ccccc2NC(c2cc(Cl)cc(Cl)c2O)N1Cc1cccnc1", "note": "(stereo not drawn)", "Potency": "inconclusive: 6.31 µM [inhibitor, single point]"}
{"compound": "CCCCC(=O)Nc1ccc(C(=O)Nc2cc(C(F)(F)F)ccc2Cl)cc1", "Potency": "inconclusive: 11.2 µM [inhibitor, partial curve, poor fit]"}
{"compound": "COC(=O)C1=CC(C(=O)c2cccs2)=NN(c2ccc(OC)cc2)C1C(=O)OC", "note": "(stereo not drawn)", "Potency": "inconclusive: 7.94 µM [inhibitor, partial curve]"}
{"compound": "Cc1nc(N2CCN(c3ccccn3)CC2)c2c(C)c(C(=O)Nc3ccc(F)c(Cl)c3)sc2n1", "Potency": "inconclusive: 2 µM [inhibitor, full curve, poor fit]"}
